For 16 molecules, AC50 results are on record in PubChem BioAssay AID1487 (National Center for Advancing Translational Sciences (NCATS), 2009).

The other results are listed elsewhere or left out. The main result of the screen is listed elsewhere. These columns were measured beside it and carry no call. Most of these compounds were active or inconclusive in the main read-out, so they are no random draw. Words in brackets tell the shape of the fitted curve; partial curves, single points and poor fits give uncertain potencies.

The AC50 is the midpoint of the concentration-response curve, whichever way the signal moves.

The assay in a line: qHTS Assay for Modulators of Lamin A Splicing. Conditions: HeLa LMNA splicing GFP/RFP minigene ratio, 48 h. The method, boiled down:
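Read-out is the ratio of GFP to DsRed2 object intensity, acquired by 488 nm laser-scanning cytometry on HeLa lamin A-EGFP minigene reporter cells. Compound incubation 48 hrs at 37 °C in Opti-MEM with 2% FBS; DMSO 0.5% final.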
(In general: Quantitative high-throughput screening tests each substance at several concentrations.)

The mark [1] stands for this setting: measured here: RFP viability control channel.
[2] abbreviates: measured here: GFP splicing reporter channel.

Consider `COc1ccc(N2CCN(C(=O)CSc3ccccc3N)CC2)cc1`, for which the AC50 under setting [1] is 35.5 µM [rising, single point].

With `Cc1ccc(S(=O)(=O)N(CC(=O)N2CCc3ccccc3C2)c2ccc(Cl)c(Cl)c2)cc1`, the AC50 under setting [1] was 8.91 µM [rising, partial curve].

With `Clc1ccc2[nH]c3c(N4CCC5(CC4)OCCO5)ncnc3c2c1`, the half-maximal activity concentration (AC50) under setting [1] is 8.91 µM [rising, single point].

`COc1ccc(Cc2nc(-c3ccc(Br)cc3)no2)cc1`: the AC50 is, setting by setting: under setting [2], 12.6 µM [falling, partial curve, poor fit]; under setting [1], 11.2 µM [rising, partial curve].

`CSc1c2c(nc3ncnn13)CCC2`: the AC50 under setting [1] was 25.1 µM [rising, single point].

`CCCNC(=O)Cn1c(=O)oc2ccccc21`: the AC50 under setting [1] is 2.24 µM [falling, full curve, poor fit].

Turning to `O=C(CSC1=Nc2ccccc2C2=NC(Cc3ccccc3)C(=O)N12)Nc1cccc(Cl)c1` (stereo unspecified), under setting [1], the AC50 is 12.6 µM [rising, partial curve, poor fit].

With `O=C(N/N=C/c1ccccn1)c1cc(-c2cccc3ccccc23)n[nH]1`, the AC50 under setting [1] was 8.91 µM [rising, partial curve, poor fit].

With `CC(C)(C)c1ccc(NC(=S)NCc2cccs2)cc1`, the AC50 is 35.5 µM [rising, single point] under setting [2] and 28.2 µM [rising, single point] under setting [1].

As for `COc1ccc(-c2cnc(SCC(=O)Nc3nc(C(C)(C)C)cs3)n2Cc2ccco2)cc1`, the AC50 under setting [1] is 35.5 µM [rising, single point].

Turning to `O=C1Nc2ccccc2N=C(c2ccccc2)C1Br` (stereo unspecified), the AC50 reads like this: under setting [2], 35.5 µM [falling, partial curve, poor fit]; under setting [1], 1.26 µM [falling, partial curve, poor fit].

Turning to `CC(O)C(=O)N/N=C/c1cccc2ccccc12` (stereo unspecified), the AC50 under setting [1] was 1.12 µM [falling, partial curve].

For `CC(C)n1c(-c2ccccc2)nc(=S)c2c1CCCC2`, the AC50 is, setting by setting: under setting [2], 11.2 µM [rising, partial curve]; under setting [1], 8.91 µM [rising, partial curve].

In the case of `Cc1c(-n2c(-c3ccccc3Cl)n[nH]c2=S)c(=O)n(-c2ccccc2)n1C`, the AC50 under setting [2] is 0.01 µM [falling, full curve, poor fit] and the AC50 under setting [1] is 0.0112 µM [falling, full curve, poor fit].

For `CSc1ccc(C2C(C#N)=C(N)Oc3cc4c(cc32)OCO4)cc1` (stereo unspecified), under setting [1], the AC50 is 6.31 µM [rising, partial curve, poor fit].

Consider `CC(=O)N1CCC2(CC1)C/C(=N\NC(=S)Nc1ccccc1C)c1cc(O)ccc1O2`, for which the AC50 under setting [1] is 0.0158 µM [falling, full curve, poor fit].
